Data taken from patent US20200347130A1 (JIANGSU HENGRUI MEDICINE, published 2020).
These are yes or no findings as the source states them, for the method shown. Some entries that bind do so weakly or less than the wild type.

T1: Biotinylated CD96 antigen (human, UniProt P40200-2 22-503, limits assumed, biotinylated)
T1 sequence (looked up): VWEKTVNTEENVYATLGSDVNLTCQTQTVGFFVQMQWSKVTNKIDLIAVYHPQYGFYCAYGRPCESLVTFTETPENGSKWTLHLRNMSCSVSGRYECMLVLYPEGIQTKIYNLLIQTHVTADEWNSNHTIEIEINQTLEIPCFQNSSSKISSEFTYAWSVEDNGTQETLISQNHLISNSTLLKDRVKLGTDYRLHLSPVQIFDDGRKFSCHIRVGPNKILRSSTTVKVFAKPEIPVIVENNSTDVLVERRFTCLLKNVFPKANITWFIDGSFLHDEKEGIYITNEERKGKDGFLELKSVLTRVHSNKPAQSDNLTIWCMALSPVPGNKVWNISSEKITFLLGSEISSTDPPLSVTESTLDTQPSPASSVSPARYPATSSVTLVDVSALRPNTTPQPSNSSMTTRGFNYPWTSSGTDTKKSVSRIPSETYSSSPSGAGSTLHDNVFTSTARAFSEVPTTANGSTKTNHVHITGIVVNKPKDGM

B1: h1718-012 (antibody, V domains shown)
VH: EVQLVQSGAEVKKPGASVKVSCKASGYTITDYNMNWVRQAPGQRLEWIGVINPSYGITDYNQNFKDRVTITVDTSASTAYMELSSLRSEDTAVYYCAIQLRLPGYFDVWGQGTTVTVSS
VL: DIQMTQSPSSLSASVGDRVTITCKASQDINQYLNWFQQKPGKAPKTLIYRANRLVDGVPSRFSGSGSGQDYTLTISSLQPEDFATYYCLKYDEFPYTFGGGTKVEIK
notes: Only variable regions are tied to this name
B2: ch1720 (antibody, human IgG4 S228P, kappa, V domains shown)
VH: EFQLQQSGPELVKPGASVKISCKASAYSLTDYNMNWVKQSNGKSLEWIGVINPSYGISSYNQKFKGKATLTVDQSSSTAYMHLNSLTSEDSAVYYCARQLRLPGYFDVWGTGTTVTVSS
VL: DIKMTQSPSSKNASLGERVTITCKASQDINSYLNWFQQKPGKSPKTLIYRASRLVDGVPSRFSGSGSGQDYSLTISSLEYEDMGIYYCLKYDEFPYTFGGGTKLEIKR
notes: also called chimeric antibody corresponding to m1720
B3: h1719-010 (antibody, V domains shown)
VH: EVTLKESGPVLVKPTETLTLTCTVSGFSLSSYGVSWVRQPPGKGLEWLGVIWGDGNTNYHSVLISRLTISKDTSKSQVVLTLTNMDPVDTATYYCAKQNYYGSRYGYPIDYWGQGTTVTVSS
VL: DIQMTQSPSSVSASVGDRVTITCKATQDVGTAVAWYQQKPGKAPKLLIYWASTRHTGVPSRFSGSGSGTDFTLTISSLQPEDFATYYCQQYGSSVLTFGGGTKVEIK
notes: as for B1
B4: h1721-003 (antibody, V domains shown)
VH: EVTLKESGPVLVKPTETLTLTCTVSGFSLSSYGVNWIRQPPGKALEWLGVIWGDGSTNYHSALISRLTISKDTSKSQVVLTLTNMDPVDTATYYCAKNYFYGSRYGYAMDSWGQGTTVTVSS
VL: DIQMTQSPSSLSASVGDRVTITCRASENIYSSLAWYQQKPGKAPKLLIYNAKTLIEGVPSRFSGSGSGTDFTLTISSLQPEDFATYYCQHHYGTPYTFGGGTKVEIK
notes: Only variable regions are tied to this name; also called M721-003
B5: h1722-010 (antibody, V domains shown)
VH: EVQLVQSGAEVKKPGSSVKVSCKASGGTFSDYWMHWVRQAPGQGLEWIGMLHPNSGTTSFNEKFKIRVTITADKSTSTAYMELSSLRSEDTAVYYCASDYSGPFAYWGQGTLVTVSS
VL: DIQLTQSPSSLSASVGDRVTITCSASSSVNYIHWYQQKPGKAPKRWIFDTSKLASGVPSRFSGSGSGTDYTLTISSLQPEDFATYYCQQWRSNPLTFGQGTKLEIK
notes: Only variable regions are tied to this name; also called M722-010

The binders below were run against T1, Biotinylated CD96 antigen (assay: competition ELISA: antibody B pre-incubated with biotinylated CD96 antigen, added to a plate coated with antibody A, HRP-streptavidin, OD450; competitor: coated h1718-012).
Protocol: (§1) Competitive assays of different antibodies binding to CD96 protein were used to classify binding epitopes of the antibodies. The specific experimental methods are as follows:
(§2) Antibody A was diluted to a concentration of 2 μg/ml with PBS buffer (Shanghai Yuanpei Biotechnology Co., Ltd. Cat No. B320), pH 7.4, added to a 96-well microtiter plate (Corning, Cat No. CLS3590-100EA) at a volume of 50 μl/well, and coated at 4° C. overnight. After discarding the liquid, 250 μl/well of 5% skim milk (BD skim milk, Cat No. 232100) blocking solution diluted with PBS was added, and the plate was incubated at 37° C. for 3 hours. After blocking, the blocking solution was discarded, and the plate was washed 5 times with PBST buffer (pH 7.4 PBS containing 0.05% tween-20) and stored for later use. Antibody B was diluted to 40 μg/ml and 8 μg/ml with 1% BSA, and Biotinylated CD96 antigen was simultaneously diluted to 4 μg/mL. Subsequently, antibody B and antigen were mixed in a 1:1 volume ratio, pre-incubated at 37° C. for 45 minutes, added into the enzyme plate coated with antibody A, thus incubating the plate in an incubator at 37° C. for 1.5 hours. After incubation, the plate was washed for 5 times with PBST, and 50 μl/well of HRP-labeled streptavidin (Sigma, Cat No. 52438) diluted with sample dilution was added, followed by incubating the plate at 37° C. for 1 hour. After washing the plate 5 times with PBST, 50 μl/well of TMB chromogenic substrate (KPL, Cat No. 52-00-03) was added for color development, followed by adding 50 μl/well of 1M H₂SO₄ to stop the reaction. The absorption value was read at 450 nm with a NOVOStar microplate reader, and the OD value was used to determine whether A and B CD96 antibodies compete with each other. Antibodies that compete with each other fall into the same class of antibodies, otherwise belong to different classes of antibodies (see FIG. 3 and Table 18).

binding | Binder
binds | B1
binds | B2
binds | B3
binds | B4

The binders below were run against T1, Biotinylated CD96 antigen (assay: competition ELISA: antibody B pre-incubated with biotinylated CD96 antigen, added to a plate coated with antibody A, HRP-streptavidin, OD450; competitor: coated h1722-010).
Protocol: as §1
as §2, with “After incubation, the plate was washed for 5 times with PBST, and 50 μl/well of HRP-labeled streptavidin (Sigma, Cat No. 52438) diluted with sample dilution was added, followed by incubating the plate at 37° C. for 1 hour. After washing the plate 5 times with PBST, 50 μl/well of TMB chromogenic substrate (KPL, Cat No. 52-00-03) was added for color development, followed by adding 50 μl/well of 1M H₂SO₄ to stop the reaction.” left out, “Antibodies that compete with each other fall into the same class of antibodies, otherwise belong to different classes of antibodies (see FIG. 3 and Table 18).” left out

binding | Binder
binds | B5

These binders were tested against T1, Biotinylated CD96 antigen (assay: competition ELISA: antibody B pre-incubated with biotinylated CD96 antigen, added to a plate coated with antibody A, HRP-streptavidin, OD450; competitor: coated ch1720).
Protocol: as §1, §2

binding | Binder
binds | B1
binds | B2
binds | B3
binds | B4

What follows are binders tested against T1, Biotinylated CD96 antigen (assay: competition ELISA: antibody B pre-incubated with biotinylated CD96 antigen, added to a plate coated with antibody A, HRP-streptavidin, OD450; competitor: coated h1721-003).
Protocol: as §1, §2

binding | Binder
binds | B1
binds | B2
binds | B3
binds | B4

The binders below were run against T1, Biotinylated CD96 antigen (assay: competition ELISA: antibody B pre-incubated with biotinylated CD96 antigen, added to a plate coated with antibody A, HRP-streptavidin, OD450; competitor: coated h1719-014 (named by the legend paragraph 84)).
Protocol: as §1, §2

binding | Binder
binds | B1
binds | B2
binds | B3
binds | B4
